Results are given in words; binding and its absence hold for the method and conditions named. In cells and extracts the contact can be indirect.

Amino acid sequences for entries named in this document (tags omitted). Residues count along the entry.
UniProt Q10589, residues 1-161: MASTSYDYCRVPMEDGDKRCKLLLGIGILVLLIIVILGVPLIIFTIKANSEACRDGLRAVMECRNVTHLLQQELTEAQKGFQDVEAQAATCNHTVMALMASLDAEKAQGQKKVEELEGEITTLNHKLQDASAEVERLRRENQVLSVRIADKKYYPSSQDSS
UniProt Q1A244: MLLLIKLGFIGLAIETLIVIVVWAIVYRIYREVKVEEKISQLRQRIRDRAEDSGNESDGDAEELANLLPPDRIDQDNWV

The results in this text go back to PMC3534379.

The experiment concerns the target human tetherin fused to the C-terminal fragment of Kusabira green (KGC) (human) (UniProt Q10589). Put plainly: split reporter; Kusabira green BiFC: KGN fused to Vpu, KGC fused to human tetherin; 293T cells cotransfected with 2.5 µg of each construct; two days later confocal microscopy and flow cytometry, MFI of Kusabira green normalised to the MFI of tetherin. On the technique in general: In flow cytometry, cells or beads pass a laser one at a time.

Consider “SIVcpz EK505 Vpu fused to the N-terminal fragment of Kusabira green (KGN) (from UniProt Q1A244 1-79)”, for which the binding entry was “no binding”.
